Results of single-concentration screens

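Whole-parasite assay of Trypanosoma brucei over 72 hours; the read-out is not stated. Tested at 30 µM. The record gives no direction; compounds that gave an IC50 in retests scored well above the rest, so higher reads as stronger inhibition. Values scatter widely below zero; nearly all retest evidence comes from the higher of the two concentrations used. About 64,000 compounds were tested under these conditions; 1.5% (about 940) showed 50% or more at least once.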

The filed quantity is “Percent Effect” (%).
How 0% and 100% were set is not recorded. Most values in the screen are low, and negative values occur.
This is an unselected part of the compounds tested.

compound | effect
Cc1nc2cc(F)ccc2cc1C(=O)N1CCN(CC(C)O)CC1 (stereo not given) | -28.88
CN(Cc1cn[nH]c1-c1ccc(F)cc1)C(=O)CCC1CC1 | -52.12
CN1CCN(Cc2cnc3n2CCN(CCc2ccccc2)C3)CC1.O=C(O)C(F)(F)F.O=C(O)C(F)(F)F.O=C(O)C(F)(F)F | -12.43
COc1ncccc1NC(=O)NC(C)(C)c1ncc(C)s1 | -65.63
CN(Cc1ccco1)c1ccc(C(=O)NCCCc2ccccn2)cn1 | 12.04
Cc1nn(C)c(N2CCOCC2)c1CNCC1CCS(=O)(=O)C1 (stereo not given) | -26.29
CC(C)(C)c1nc(CN2CCCC2Cn2cccn2)no1 (stereo not given) | -7.195
CC(C)n1ccc(-c2cc(C(=O)NC3CC3)c3ccccn23)n1 | -60.78
COc1cn(CC(=O)N2CCC(c3ccccc3)CC2)c(C)cc1=O | -19.81
N#Cc1cc(F)ccc1Cn1cncn1 | -20.51
CC(=O)N1N=C(COc2ccc(C)cc2)OC1c1ccc(N(C)C)cc1 (stereo not given) | -0.4797
CN(Cc1ccccc1)C1COC2(CCN(Cc3nccs3)CC2)C1.O=C(O)C(F)(F)F (stereo not given) | 56.78
O=C1CC(c2ncc(-c3ccc4c(c3)OCCO4)[nH]2)CN1C1CC1 (stereo not given) | -21.7
c1ccc(-c2nnc3sc(CCN4CCCC4)nn23)cc1 | -48.79
COc1ccc(Cl)cc1CS(=O)(=O)Cc1nc(C2CC2)no1 | -17.69
Cc1ncccc1C(=O)Nc1cccc(C[S+](C)[O-])c1C (stereo not given) | -20.87
COc1ccc(-c2n[nH]cc2CN(C)CCc2scnc2C)c(F)c1 | 3.341
O=C(O)C(F)(F)F.[H][C@]12CC[C@@]3(N=C(CC)N(C)C3=O)[C@@]1([H])CN(Cc1ccc(C)cc1)C2 | -61.95
O=C(c1cccnc1N1CCCCC1)N1CCCC(n2cccn2)C1 (stereo not given) | -8.291
Cc1cc(CN2CCC(C3CCN(CC(C)C)CC3)C2)[nH]n1 (stereo not given) | 35.55
CC(O)CNCc1c(C(C)C)nn(C)c1N1CCOCC1 (stereo not given) | -3.349
Cc1ccsc1C(=O)N1CCCn2c(nc(CN(C)C)cc2=O)C1.O=C(O)C(F)(F)F | 3.189
COc1ccc2c(ccn2CCN)c1 | 29.24
O=C1N(Cc2cccc(F)c2)CCC12CCCN(c1ncc(F)cn1)C2 (stereo not given) | -24.5
CN1CCCC(c2cncc(-c3cccc(C(F)(F)F)c3)n2)C1 (stereo not given) | 45.17
CN(C(=O)c1cn(C)cn1)[C@@H]1CCC[C@@H](Oc2ccccc2)[C@@H]1O | 4.102
CSCC(CCO)NC(=O)c1cccc(C)c1Cl (stereo not given) | -37.02
CCc1nc(CN(Cc2cccs2)CC2CCCO2)no1 (stereo not given) | 9.593
O=C1CCCN1CCc1noc(-c2ccc(Cl)cc2)n1 | -13.83
CC(O)c1cccc(N2CCC3(CC2)Nc2ccccc2NC3=O)n1 (stereo not given) | -2.587
Cc1cc(C)nc(NC(=O)NCCCSc2nncn2C)n1 | -21.34
CC(CN1CCOCC1)NCc1nncn1C1CCCCC1 (stereo not given) | 14.75
COc1ccc(CN2CCN(c3ncc(Cl)cn3)CC2)cc1 | 2.994
CC(C)C(O)C(=O)N1CCC2(CC1)c1nc[nH]c1CCN2S(C)(=O)=O (stereo not given) | -36.72
Cc1noc(C)c1-c1n[nH]c2c1CN(S(=O)(=O)c1cccs1)CC2 | -4.41
[H][C@]12CC[C@]([H])(CN(Cc3ccccc3)C1)N(C(=O)CCc1cnn(C)c1)C2 | 18.36
Cc1cc(Cc2ccc(S(=O)(=O)N3CCSCC3)cc2)c(=O)[nH]n1 | -5.435
O=C(O)C(F)(F)F.[H][C@@]12CCC(=O)N(c3cnn(C)c3)[C@]1([H])CCN2C(=O)c1cscn1 | -16.62
Cc1nnc(NC(=O)NC2CCCc3c2cnn3CCO)s1 (stereo not given) | 34.72
COC[C@@H]1CCC[C@@]12CN(Cc1ccco1)CCO2.O=C(O)C(F)(F)F | -1.793
Cc1csc(N2CCCN(C(=O)c3nccnc3N)CC2)n1 | -17.52
COCCNc1cc(C2CCCNC2)ccn1.Cl (stereo not given) | 9.179
COc1ccc(NC(=O)COc2nn(C)c3nc(C)cc(C)c23)cn1 | 14.52
COc1cccc(OCCNCc2ccccc2)c1.O=C(O)C(=O)O | -39.67
CCC1(CC)CC(=O)N(CC(O)c2cccc(F)c2)C1=O (stereo not given) | -57.76
CN(CCCc1cnn(C)c1)C(=O)C1CCCN(C2CCCC2)C1 (stereo not given) | -12.46
Cc1ccoc1C(=O)NC1CCN(Cc2cccc3ccccc23)CC1 | 57.41
CC1CCc2[nH]c(=O)c(C(=O)N3CCc4ccccc4C3)cc2C1 (stereo not given) | -8.539
CO[C@H]1CCN(c2nnc(C)s2)C[C@@H]1Cc1cccc(C)c1.O=C(O)C(F)(F)F | 100.1
CC(=O)N1CCC(C)(c2cc(C(=O)NCC(C)(C)C)nc(C)n2)CC1 | -13.72
CN(C)C(=O)CO[C@H]1COCCN(C2CCOCC2)C1 | -3.334
CN(Cc1ccncc1)CC1CCCN(CCc2ccc(Cl)cc2)C1 (stereo not given) | 15.49
Cc1nc(N2CCN(C)CC2)ncc1C(=O)N1C[C@@H](C)[C@@](C)(O)C1 | -18.71
Cc1cccc(CN2CCN(C(=O)c3ccc(C)[nH]c3=O)CC2)c1 | 7.997
O=C(NCCC1=CCCCC1)C1CCN(c2ccc3nncn3n2)CC1 | 11.52
CCOC(=O)[C@H]1[C@@H](O)C(=O)N(C)C12CCN(C(=O)CC(C)(C)C)CC2 | 3.266
CN(CCO)C[C@@H]1CN(Cc2ccccc2-c2ccccc2)C[C@@H]1CO | -41.66
NC(=O)NC(=O)CNC1(c2ccc(Cl)cc2)CCC1 | -3.189
CC(=O)N1CCC2(CC1)CCN(C(=O)c1ccc(F)c(C(F)(F)F)c1)C2 | 25.51
COCc1noc(CN2C(=O)OC[C@@H]2C(C)C)n1 | -49.49
O=C(NCCc1[nH]nc2c1CCCC2)C1CCCN(Cc2ccco2)C1 (stereo not given) | 13.33
Cc1nn(C)c(C)c1NC(=O)CCn1ncc2ccccc21 | -8.173
CC(C)c1ocnc1C(=O)Nc1cccc(Cn2ccccc2=O)c1 | -30.62
COc1ccccc1CN(Cc1nc2c(cnn2C)c(=O)[nH]1)C1CC1 | -3.887
CN([C@@H]1CCC[C@@H](n2ccnc2)[C@@H]1O)S(=O)(=O)c1cn(C)cn1 | -0.9495
CCOc1ccc(C(F)(F)F)cc1NCc1cc(C)on1 | -17.05
Cc1cc(CN2CCC(CNC(=O)c3cnc(C)nc3C)C2)[nH]n1 (stereo not given) | -239
CCCN(CCC)c1ncc(S(=O)(=O)c2ccc(OC)cc2)c(N)n1 | 4.215
Fc1ccc(CN2CCc3ncnc(C4CC4)c3CC2)cc1.O=C(O)C(F)(F)F | -12.14
CC(SCCS(C)(=O)=O)c1nc(Cc2ccc(F)cc2)no1 (stereo not given) | -7.181
Cc1cc(C)n(CC(=O)N2CCC(c3nc(C(C)C)no3)CC2)n1 | -11.15
CCN(CC)S(=O)(=O)c1cnccc1N1CCN(C(C)C)CC1 | -37.4
CCOCC(=O)N1CCC(c2nccn2Cc2cscn2)CC1 | -19.92
O=C(O)C(F)(F)F.O=C([C@H]1CCCO1)N1CCOC2(CCCN(c3ncccc3F)C2)C1 (stereo not given in full) | 1.881
CCOCCN1CCN(Cc2nnc(-c3occc3C)o2)CC1CC (stereo not given) | -7.087
CNC(=O)COc1cccc(CNC(=O)c2c(C)noc2C(C)C)c1 | -5.878
O=C(O)C(F)(F)F.[H][C@@]12COC[C@]1(CN(C)C)CN(C(=O)c1cc(C)oc1C)C2 | -29.09
CC1c2ncc(Cn3cccn3)n2CCN1S(C)(=O)=O.O=C(O)C(F)(F)F (stereo not given) | -32.59
CN(C)C(=O)C1CCCN1CCCNC(=O)Cc1ccccc1F (stereo not given) | -22.02
Cc1cccc2c1nc1n2[C@@H](CNC(=O)Cc2ccccc2)COC1 | -5.088
Cn1cnn(Cc2c(F)cccc2Br)c1=O | -57.57
Cc1cc(C)c(NC(=O)Nc2cnn(CC(O)CN(C)C)c2)c(C)c1 (stereo not given) | -28.48
COCCN1C[C@@H](C)[C@@]2(COCCN(C(=O)c3cccs3)C2)C1.O=C(O)C(F)(F)F | -8.357
CCn1ccnc1CN1CCN(C(C)C(=O)N2CCCCCC2)CC1 (stereo not given) | -8.209

Repeated from the top, 8 entries:

- Cc1nc2cc(F)ccc2cc1C(=O)N1CCN(CC(C)O)CC1 (stereo not given) | -28.88%
- CN(Cc1cn[nH]c1-c1ccc(F)cc1)C(=O)CCC1CC1 | -52.12%
- CN1CCN(Cc2cnc3n2CCN(CCc2ccccc2)C3)CC1.O=C(O)C(F)(F)F.O=C(O)C(F)(F)F.O=C(O)C(F)(F)F | -12.43%
- COc1ncccc1NC(=O)NC(C)(C)c1ncc(C)s1 | -65.63%
- CN(Cc1ccco1)c1ccc(C(=O)NCCCc2ccccn2)cn1 | 12.04%
- Cc1nn(C)c(N2CCOCC2)c1CNCC1CCS(=O)(=O)C1 (stereo not given) | -26.29%
- CC(C)(C)c1nc(CN2CCCC2Cn2cccn2)no1 (stereo not given) | -7.195%
- CC(C)n1ccc(-c2cc(C(=O)NC3CC3)c3ccccn23)n1 | -60.78%

Source: ChEMBL document CHEMBL3988442, “University of Dundee, Small-Polar-MMV Screening Library” (2021).